Data on one compound can be found in patent US20230158001A1, “PHARMACEUTICAL COMPOSITION COMPRISING BENZIMIDAZOLE DERIVATIVE COMPOUND” (HK INNO.N CORPORATION, priority 2020, published 2023).

This data set can be described thus: Pharmacokinetic interaction of tegoprazan and naproxen, alone or in combination (Cohort 1). Further details: species or system human (healthy adult males). The note with it: male, human, in vivo, 500 mg; read-out: AUCτ, Geometric LS Mean.

For `COc1ccc2cc([C@H](C)C(=O)O)ccc2c1` [Naproxen, naproxen, reference compound], the AUC turned out to be 743 ng·h/mL.
